Results published in PMC11005723, “Development of Complementary Photo‐arginine/lysine to Promote Discovery of Arg/Lys hPTMs Interactomes” (Advanced Science, 2024).
This continues a long series; more values of the same kind are listed elsewhere.

System: HEK293T nuclear lysates
Test: SILAC‐based pull‐down proteomics H4K5me1/H4K5 (probes 6/5)
Assay type: binding, human

## probe 6: H4K5me peptide probe with photo‐arginine R(dz) and K(biotin) (SGRGKGGKGLGKGGK; photo-arginine R(dz) at 3; monomethyl-lysine at 5; K(biotin) at 15)
Protein A0A0B4J1W3 NAA15, run B6
  B6 log2 (H4K5me/H4K5): 0.3204
Protein A0A0B4J1W3 NAA15, run C6
  C6 log (H4K5me/H4K5): -0.5428
Protein A0A0B4J2E5 LOC102724159, run B6
  B6 log2 (H4K5me/H4K5): 0.4123
Protein A0A0B4J2E5 LOC102724159, run C6
  C6 log (H4K5me/H4K5): 0.265
Protein A0A0C4DFX4 Uncharacterized protein (Fragment), run B6
  B6 log2 (H4K5me/H4K5): 0.1431
Protein A0A0C4DFX4 Uncharacterized protein (Fragment), run C6
  C6 log (H4K5me/H4K5): 0.03123
Protein A0A0U1RR22 PACSIN2, run B6
  B6 log2 (H4K5me/H4K5): 0.5847
Protein A0A0U1RR22 PACSIN2, run C6
  C6 log (H4K5me/H4K5): 0.5847
Protein A0A1B0GUB2 CDC73, run B6
  B6 log2 (H4K5me/H4K5): 0.1338
Protein A0A1B0GUB2 CDC73, run C6
  C6 log (H4K5me/H4K5): -0.6553
Protein A0A1W2PQ90 Uncharacterized protein, run B6
  B6 log2 (H4K5me/H4K5): 0.3344
Protein A0A1W2PQ90 Uncharacterized protein, run C6
  C6 log (H4K5me/H4K5): -0.04098
Protein A0A087WVT1 ZNF48, run B6
  B6 log2 (H4K5me/H4K5): 0.1392
Protein A0A087WVT1 ZNF48, run C6
  C6 log (H4K5me/H4K5): 0.3481
Protein A0A087WY61 NUMA1, run B6
  B6 log2 (H4K5me/H4K5): 0.4403
Protein A0A087WY61 NUMA1, run C6
  C6 log (H4K5me/H4K5): 0.234
Protein A0A590UJK4 SRSF6, run B6
  B6 log2 (H4K5me/H4K5): 0.4188
Protein A0A590UJK4 SRSF6, run C6
  C6 log (H4K5me/H4K5): 0.701
Protein ABI2 (E9PEZ7), run B6
  B6 log2 (H4K5me/H4K5): 0.05156
Protein ABI2 (E9PEZ7), run C6
  C6 log (H4K5me/H4K5): 0.1509
Protein ACAT1 (A0A5F9ZHJ7), run B6
  B6 log2 (H4K5me/H4K5): 0.01703
Protein ACAT1 (A0A5F9ZHJ7), run C6
  C6 log (H4K5me/H4K5): 0.06128
Protein ACTL6A (O96019), SILAC run B6
  B6 log2 (H4K5me/H4K5): -0.3299
Protein ACTL6A (O96019), SILAC run C6
  C6 log (H4K5me/H4K5): -0.03866
Protein ADAR (P55265), run B6
  B6 log2 (H4K5me/H4K5): -0.01052
Protein ADAR (P55265), run C6
  C6 log (H4K5me/H4K5): -0.07333
Protein AHSA1 (O95433), SILAC run B6
  B6 log2 (H4K5me/H4K5): -0.3074
Protein AHSA1 (O95433), SILAC run C6
  C6 log (H4K5me/H4K5): -0.4405
Protein ANP32A (P39687), run B6
  B6 log2 (H4K5me/H4K5): 0.07542
Protein ANP32A (P39687), run C6
  C6 log (H4K5me/H4K5): -0.03396
Protein ANP32E (Q9BTT0), SILAC run B6
  B6 log2 (H4K5me/H4K5): -0.3202
Protein ANP32E (Q9BTT0), SILAC run C6
  C6 log (H4K5me/H4K5): -0.3496
Protein ANXA2 (P07355), run B6
  B6 log2 (H4K5me/H4K5): 0.1054
Protein ANXA2 (P07355), run C6
  C6 log (H4K5me/H4K5): -0.006249
Protein ARIH1 (Q9Y4X5), run B6
  B6 log2 (H4K5me/H4K5): 0.04302
Protein ARIH1 (Q9Y4X5), run C6
  C6 log (H4K5me/H4K5): 0.09616
Protein ARL6IP4 (F5GYV5), SILAC run B6
  B6 log2 (H4K5me/H4K5): -0.3984
Protein ARL6IP4 (F5GYV5), SILAC run C6
  C6 log (H4K5me/H4K5): -0.271
Protein ATF7IP (Q6VMQ6), run B6
  B6 log2 (H4K5me/H4K5): 0.1175
Protein ATF7IP (Q6VMQ6), run C6
  C6 log (H4K5me/H4K5): -0.9105
Protein B5MDQ0 ERCC6L, run B6
  B6 log2 (H4K5me/H4K5): 0.3807
Protein B5MDQ0 ERCC6L, run C6
  C6 log (H4K5me/H4K5): -0.7652
Protein BCCIP (Q9P287), run B6
  B6 log2 (H4K5me/H4K5): -0.001051
Protein BCCIP (Q9P287), run C6
  C6 log (H4K5me/H4K5): -0.1692
Protein BIN1 (O00499), SILAC run B6
  B6 log2 (H4K5me/H4K5): -0.2006
Protein BIN1 (O00499), SILAC run C6
  C6 log (H4K5me/H4K5): -0.3971
Protein BOD1L1 (Q8NFC6), run B6
  B6 log2 (H4K5me/H4K5): 0.00162
Protein BOD1L1 (Q8NFC6), run C6
  C6 log (H4K5me/H4K5): -0.09575
Protein BPTF (F5GXF5), run B6
  B6 log2 (H4K5me/H4K5): 0.004019
Protein BPTF (F5GXF5), run C6
  C6 log (H4K5me/H4K5): -0.2522
Protein BRD3 (Q15059), SILAC run B6
  B6 log2 (H4K5me/H4K5): -0.289
Protein BRD3 (Q15059), SILAC run C6
  C6 log (H4K5me/H4K5): -0.3232
Protein BRD4 (O60885), SILAC run B6
  B6 log2 (H4K5me/H4K5): -0.3226
Protein BRD4 (O60885), SILAC run C6
  C6 log (H4K5me/H4K5): -0.2948
Protein BRD7 (Q9NPI1), run B6
  B6 log2 (H4K5me/H4K5): 0.08011
Protein BRD7 (Q9NPI1), run C6
  C6 log (H4K5me/H4K5): 0.09406
Protein BRD8 (B5MCW3), SILAC run B6
  B6 log2 (H4K5me/H4K5): -0.4811
Protein BRD8 (B5MCW3), SILAC run C6
  C6 log (H4K5me/H4K5): -0.188
Protein BZW2 (E7ETZ4), SILAC run B6
  B6 log2 (H4K5me/H4K5): -0.2716
Protein BZW2 (E7ETZ4), SILAC run C6
  C6 log (H4K5me/H4K5): -0.4586
Protein C1QBP (Q07021), run B6
  B6 log2 (H4K5me/H4K5): -0.003748
Protein C1QBP (Q07021), run C6
  C6 log (H4K5me/H4K5): -0.1397
Protein C1orf52 (Q8N6N3), SILAC run B6
  B6 log2 (H4K5me/H4K5): -0.3601
Protein C1orf52 (Q8N6N3), SILAC run C6
  C6 log (H4K5me/H4K5): -0.1997
Protein C9J3L8 SSR1, run B6
  B6 log2 (H4K5me/H4K5): 0.2748
Protein C9J3L8 SSR1, run C6
  C6 log (H4K5me/H4K5): 0.2786
Protein C9JRU6 DCUN1D1, run B6
  B6 log2 (H4K5me/H4K5): 0.4887
Protein C9JRU6 DCUN1D1, run C6
  C6 log (H4K5me/H4K5): 0.8825
Protein C11orf84 (Q9BUA3), run B6
  B6 log2 (H4K5me/H4K5): -0.01751
Protein C11orf84 (Q9BUA3), run C6
  C6 log (H4K5me/H4K5): 0.3521
Protein C22orf28 (Q9Y3I0), run B6
  B6 log2 (H4K5me/H4K5): 0.09589
Protein C22orf28 (Q9Y3I0), run C6
  C6 log (H4K5me/H4K5): 0.5939
Protein CALM1 (P62158), run B6
  B6 log2 (H4K5me/H4K5): -0.008735
Protein CALM1 (P62158), run C6
  C6 log (H4K5me/H4K5): -0.02009
Protein CALR (P27797), SILAC run B6
  B6 log2 (H4K5me/H4K5): -0.2715
Protein CALR (P27797), SILAC run C6
  C6 log (H4K5me/H4K5): -0.3204
Protein CANX (P27824), run B6
  B6 log2 (H4K5me/H4K5): 0.05675
Protein CANX (P27824), run C6
  C6 log (H4K5me/H4K5): -0.4177
Protein CAPRIN1 (E9PLA9), run B6
  B6 log2 (H4K5me/H4K5): 0.01797
Protein CAPRIN1 (E9PLA9), run C6
  C6 log (H4K5me/H4K5): 0.234
Protein CBX2 (Q14781), run B6
  B6 log2 (H4K5me/H4K5): 0.1082
Protein CBX2 (Q14781), run C6
  C6 log (H4K5me/H4K5): 0.02951
Protein CCDC50 (Q8IVM0), SILAC run B6
  B6 log2 (H4K5me/H4K5): -0.2246
Protein CCDC50 (Q8IVM0), SILAC run C6
  C6 log (H4K5me/H4K5): 0.1104
Protein CCT2 (P78371), run B6
  B6 log2 (H4K5me/H4K5): -0.0172
Protein CCT2 (P78371), run C6
  C6 log (H4K5me/H4K5): 0.09255
Protein CCT3 (B4DUR8), SILAC run B6
  B6 log2 (H4K5me/H4K5): -0.2158
Protein CCT3 (B4DUR8), SILAC run C6
  C6 log (H4K5me/H4K5): -0.1815
Protein CCT4 (P50991), SILAC run B6
  B6 log2 (H4K5me/H4K5): -0.252
Protein CCT4 (P50991), SILAC run C6
  C6 log (H4K5me/H4K5): -0.186
Protein CCT5 (B7ZAR1), run B6
  B6 log2 (H4K5me/H4K5): 0.05297
Protein CCT5 (B7ZAR1), run C6
  C6 log (H4K5me/H4K5): 0.1458
Protein CCT6A (P40227), SILAC run B6
  B6 log2 (H4K5me/H4K5): -0.6445
Protein CCT6A (P40227), SILAC run C6
  C6 log (H4K5me/H4K5): 0.1508
Protein CCT8 (P50990), run B6
  B6 log2 (H4K5me/H4K5): 0.05735
Protein CCT8 (P50990), run C6
  C6 log (H4K5me/H4K5): 0.02454
Protein CD3EAP (O15446), SILAC run B6
  B6 log2 (H4K5me/H4K5): -0.5108
Protein CD3EAP (O15446), SILAC run C6
  C6 log (H4K5me/H4K5): -0.5438
Protein CDC5L (Q99459), run B6
  B6 log2 (H4K5me/H4K5): 0.09795
Protein CDC5L (Q99459), run C6
  C6 log (H4K5me/H4K5): 0.151
Protein CDC27 (G5EA36), run B6
  B6 log2 (H4K5me/H4K5): 0.01235
Protein CDC27 (G5EA36), run C6
  C6 log (H4K5me/H4K5): -0.1591
Protein CDK1 (A0A024QZP7), SILAC run B6
  B6 log2 (H4K5me/H4K5): -0.9796
Protein CDK1 (A0A024QZP7), SILAC run C6
  C6 log (H4K5me/H4K5): -0.9055
Protein CEBPZ (Q03701), SILAC run B6
  B6 log2 (H4K5me/H4K5): -0.2332
Protein CEBPZ (Q03701), SILAC run C6
  C6 log (H4K5me/H4K5): -0.1202
Protein CFL1 (G3V1A4), run B6
  B6 log2 (H4K5me/H4K5): 0.0742
Protein CFL1 (G3V1A4), run C6
  C6 log (H4K5me/H4K5): -0.03597
Protein CHAF1A (Q13111), run B6
  B6 log2 (H4K5me/H4K5): 0.002339
Protein CHAF1A (Q13111), run C6
  C6 log (H4K5me/H4K5): 0.0778
Protein CHD1L (Q86WJ1), SILAC run B6
  B6 log2 (H4K5me/H4K5): -0.2887
Protein CHD1L (Q86WJ1), SILAC run C6
  C6 log (H4K5me/H4K5): -0.02242
Protein CHD4 (A0A2R8Y425), run B6
  B6 log2 (H4K5me/H4K5): -0.01294
